PubChem BioAssay AID1224828, NIAID | 2016
Here is a random part of about 17,000 deposited reagents. 762 of them (4.5%) count as active. 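Active calls include both raised and lowered p65 entry, mostly lowered; wells with fewer than 50 cells lack a z-score.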 Raw values are not corrected between plates.

- Assay: 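Regulators linking TLR4 signalling to p65 nuclear translocation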 (primary screen)
- Cells: mouse RAW264.7 G9 macrophage reporter cells (GFP-p65, Tnf promoter-mCherry)
- Reagents: siRNA pool against mouse genes, 100 nM
- Time to read-out: 2 days siRNA transfection, then 40 min LPS before fixation
- Conditions: LPS (Salmonella minnesota R595) at 10 ng/ml
- Measurement: 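Microscopy ratio of nuclear to perinuclear-ring GFP-p65 signal, scaled to the plate median; gene score is the average of two replicate robust z-scores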
- Reading the numbers: p65 translocation robust z-score: higher = more nuclear NF-kappaB p65 after LPS than the plate median; nuclear/cytoplasmic p65 ratio: higher = more nuclear NF-kappaB p65
- Call rule: 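Active if robust z is above 3.3 (negative regulators) or below -1.56, the Tlr4 control median (positive regulators); activity score 50 or more; control wells not called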
- Calls: active = hit (p65 shift raised or lowered); inactive = no clear change

The opening 3 records, ahead of the listing:
gene	p65 translocation robust z-score	nuclear/cytoplasmic p65 ratio, rep 1	nuclear/cytoplasmic p65 ratio, rep 2	low cell count flag	Call
Ssmem1		1.71	1.94	fewer than 50 cells per well; well left out of scoring	inactive
Ccdc54	-0.03	1.53	1.42	enough cells to score	inactive
Senp2		1.48	1.2	fewer than 50 cells per well; well left out of scoring	inactive

Results, from the first entry:
gene	p65 translocation robust z-score	nuclear/cytoplasmic p65 ratio, rep 1	nuclear/cytoplasmic p65 ratio, rep 2	low cell count flag	Call
Ssmem1		1.71	1.94	fewer than 50 cells per well; well left out of scoring	inactive
Ccdc54	-0.03	1.53	1.42	enough cells to score	inactive
Senp2		1.48	1.2	fewer than 50 cells per well; well left out of scoring	inactive
Ppm1k	3.14	1.66	2.1	enough cells to score	inactive
Nobox	0.86	1.78	1.71	enough cells to score	inactive
Prss22	1.45	1.56	1.35	enough cells to score	inactive
Cyp2b10	0.94	1.73	1.92	enough cells to score	inactive
Arhgdig	-0.05	1.59	1.63	enough cells to score	inactive
Ext1	2.94	1.96	1.65	enough cells to score	inactive
Ralyl	-0.33	1.38	1.51	enough cells to score	inactive
Tnnt2	-0.35	1.45	1.49	enough cells to score	inactive
Xkr5	-1.63	1.13	1.27	enough cells to score	active
Atp5f1a	-0.04	1.51	1.6	enough cells to score	inactive
Gpr85	-0.16	1.5	1.54	enough cells to score	inactive
Vmn1r14	0.23	1.47	1.21	enough cells to score	inactive
Lins1	-0.55	1.35	1.18	enough cells to score	inactive
Slc2a5	0.01	1.49	1.55	enough cells to score	inactive
Or52h2	-0.07	1.41	1.28	enough cells to score	inactive
Rhpn2	-0.52	1.29	1.21	enough cells to score	inactive
Tacc1	-1.8	1.41	1.29	enough cells to score	active
Nop58	0.32	1.77	1.57	enough cells to score	inactive
Drc10		1.34	1.17	fewer than 50 cells per well; well left out of scoring	inactive
Mtmr7	1.31	1.98	1.81	enough cells to score	inactive
Ldlrad4	-0.53	1.42	1.54	enough cells to score	inactive
Or52w1	0.71	1.4	1.35	enough cells to score	inactive
Gm9758	0.15	1.87	1.45	enough cells to score	inactive
Pnpla3		1.41	1.85	fewer than 50 cells per well; well left out of scoring	inactive
Slc16a3	-0.23	1.36	1.24	enough cells to score	inactive
Dpy30		1.23	1.38	fewer than 50 cells per well; well left out of scoring	inactive
Speer4b	0.36	1.5	1.24	enough cells to score	inactive
Aldh3b2	0.09	1.72	1.54	enough cells to score	inactive
Tac4	0.09	1.38	1.22	enough cells to score	inactive
Aadat	1.52	1.77	1.63	enough cells to score	inactive
Anapc2	0.05	1.66	1.6	enough cells to score	inactive
Gart	0.61	1.47	1.49	enough cells to score	inactive
Ssc5d	0.54	1.48	1.57	enough cells to score	inactive
V1ra8	1.4	1.56	1.39	enough cells to score	inactive
Mettl16	-1.4	1.26	1.27	enough cells to score	inactive
Selenoi	-0.79	1.46	1.42	enough cells to score	inactive
Trim42	0.64	1.55	1.23	enough cells to score	inactive
Mrpl57	0.4	1.79	1.7	enough cells to score	inactive
Ago2	-0.55	1.34	1.34	enough cells to score	inactive
Mybl2	-0.91	1.17	1.24	enough cells to score	inactive
Corin	1.43	1.76	2.04	enough cells to score	inactive
Zfp553	-0.3	1.39	1.2	enough cells to score	inactive
Snap29		1.67	1.44	fewer than 50 cells per well; well left out of scoring	inactive
Ccr10	1.12	1.62	1.79	enough cells to score	inactive
Stmn2	-0.62	1.51	1.42	enough cells to score	inactive
Nlrp12	0.27	1.52	1.34	enough cells to score	inactive
Slc39a5		1.37	1.26	fewer than 50 cells per well; well left out of scoring	inactive
Eef1akmt2		1.15	2.01	fewer than 50 cells per well; well left out of scoring	inactive
Pfdn6	1.52	1.77	1.85	enough cells to score	inactive
Or9s15	-0.28	1.65	1.31	enough cells to score	inactive
Crx	0.53	1.61	1.39	enough cells to score	inactive
Ehmt1	-0.7	1.38	1.27	enough cells to score	inactive
Aox1	1.5	1.83	1.92	enough cells to score	inactive
Or2b6	-0.95	1.5	1.45	enough cells to score	inactive
Csdc2	1.51	1.85	1.9	enough cells to score	inactive
Tnnc1	1.15	1.62	1.74	enough cells to score	inactive
